The values that follow come from publication PMC4333378, “Human PrimPol is a highly error-prone polymerase regulated by single-stranded DNA binding proteins” (Nucleic Acids Research, 2014).

The chains behind the UniProt entries cited, without tags or fusion partners. Where a name states a change or a piece, a line headed by the entry shows the natural chain unless it says otherwise. Residues count along the entry.
UniProt P15927: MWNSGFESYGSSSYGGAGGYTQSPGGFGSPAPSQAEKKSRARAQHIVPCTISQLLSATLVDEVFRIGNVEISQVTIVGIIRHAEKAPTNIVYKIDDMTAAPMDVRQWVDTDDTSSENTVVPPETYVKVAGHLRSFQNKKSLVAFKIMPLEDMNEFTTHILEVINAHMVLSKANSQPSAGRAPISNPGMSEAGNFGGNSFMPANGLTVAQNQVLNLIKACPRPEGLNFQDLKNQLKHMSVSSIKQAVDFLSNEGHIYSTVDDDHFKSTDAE
RPA32C^172–270 (winged-helix domain of RPA2): residues 172-270 of P15927
UniProt P12004: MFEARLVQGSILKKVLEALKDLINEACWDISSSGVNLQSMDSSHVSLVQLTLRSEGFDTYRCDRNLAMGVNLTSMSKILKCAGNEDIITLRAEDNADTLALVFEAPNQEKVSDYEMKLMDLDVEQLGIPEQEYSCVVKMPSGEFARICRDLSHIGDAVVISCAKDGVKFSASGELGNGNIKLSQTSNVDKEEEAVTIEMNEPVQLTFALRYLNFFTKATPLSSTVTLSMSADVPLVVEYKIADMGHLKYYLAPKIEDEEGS

Experiment [1] concerns the target T1, PrimPol^FlagStrep (Strep-tagged human PrimPol) (human) (UniProt Q96LW4).
T1 sequence: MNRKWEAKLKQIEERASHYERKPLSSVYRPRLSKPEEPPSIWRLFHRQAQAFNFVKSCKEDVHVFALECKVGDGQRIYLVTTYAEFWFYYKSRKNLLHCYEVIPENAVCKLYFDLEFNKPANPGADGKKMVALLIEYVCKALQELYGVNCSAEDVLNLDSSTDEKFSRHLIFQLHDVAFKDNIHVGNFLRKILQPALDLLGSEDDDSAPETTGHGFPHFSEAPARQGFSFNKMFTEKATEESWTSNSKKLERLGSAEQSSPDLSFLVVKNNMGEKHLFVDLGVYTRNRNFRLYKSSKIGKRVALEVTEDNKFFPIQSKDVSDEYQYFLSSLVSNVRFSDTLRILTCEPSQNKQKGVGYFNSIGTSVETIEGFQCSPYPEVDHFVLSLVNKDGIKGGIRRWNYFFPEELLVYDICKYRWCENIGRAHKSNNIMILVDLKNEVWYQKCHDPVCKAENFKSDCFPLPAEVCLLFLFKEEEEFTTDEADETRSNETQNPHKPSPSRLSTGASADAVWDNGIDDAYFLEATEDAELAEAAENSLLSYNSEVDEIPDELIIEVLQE
The experiment is described as follows: pull-down; small-scale Strep-Tactin affinity purification of PrimPol^FlagStrep from soluble lysate of Flp-In T-REx-293 cells with or without doxycycline (10 ng/ml, 24 h), stringent washing, western blot of the elutions. For orientation: In western blotting, separated proteins are transferred to a membrane and probed.

For experiment [2], the target named is RPA32C^172–270 (winged-helix domain of RPA2) (human) (UniProt P15927). The experiment is described as follows: condition: 2-fold molar excess of unlabelled PrimPol; NMR titration; 15N-1H HSQC of 15N-enriched RPA domain (50 uM RPA70N) alone and with 2-fold molar excess (100 uM) of unlabelled PrimPol construct; 25°C; 20 mM HEPES, 80 mM NaCl, 2 mM DTT, 5% deuterium oxide, pH 7.1; both purified.

Results are given in words; binding and its absence hold for the method and conditions named. For some of these results: Binding seen in cells or lysates may run through a third protein. Some results given as binding are weak or reduced against the parent protein; the word gives no strength. For some of these results: Sequences can lack the tags named with a protein.

With “RPA32 (replication protein A subunit 2) (from UniProt P15927 1-270)”, the binding entry in experiment [1] is given as “binds”.

Consider “proliferating cell nuclear antigen (PCNA) (from UniProt P12004 1-261)”, for which, in experiment [1], the binding entry is listed as “no binding”.

B1: mitochondrial single-stranded DNA binding protein (mtSSB) (protein, UniProt Q04837 17-148)
chain: ESETTTSLVLERSLNRVHLLGRVGQDPVLRQVEGKNPVTIFSLATNEMWRSGDSEVYQLGDVSQKTTWHRISVFRPGLRDVAYQYVKKGSRIYLEGKIDYGEYMDKNNVRRQATTIIADNIIFLSDQTKEKE
For the molecule B1, the binding entry in experiment [1] is on record as “binds”.

B2: full-length human PrimPol (recombinant) (enzyme, UniProt Q96LW4 1-560)
chain: MNRKWEAKLKQIEERASHYERKPLSSVYRPRLSKPEEPPSIWRLFHRQAQAFNFVKSCKEDVHVFALECKVGDGQRIYLVTTYAEFWFYYKSRKNLLHCYEVIPENAVCKLYFDLEFNKPANPGADGKKMVALLIEYVCKALQELYGVNCSAEDVLNLDSSTDEKFSRHLIFQLHDVAFKDNIHVGNFLRKILQPALDLLGSEDDDSAPETTGHGFPHFSEAPARQGFSFNKMFTEKATEESWTSNSKKLERLGSAEQSSPDLSFLVVKNNMGEKHLFVDLGVYTRNRNFRLYKSSKIGKRVALEVTEDNKFFPIQSKDVSDEYQYFLSSLVSNVRFSDTLRILTCEPSQNKQKGVGYFNSIGTSVETIEGFQCSPYPEVDHFVLSLVNKDGIKGGIRRWNYFFPEELLVYDICKYRWCENIGRAHKSNNIMILVDLKNEVWYQKCHDPVCKAENFKSDCFPLPAEVCLLFLFKEEEEFTTDEADETRSNETQNPHKPSPSRLSTGASADAVWDNGIDDAYFLEATEDAELAEAAENSLLSYNSEVDEIPDELIIEVLQE
For B2, the binding result in experiment [2] is “no binding”.
